Primary screen of a compound library

Amino acid sequences for entries named in this document (tags omitted). Residues count along the entry.
UniProt P9WNZ1, whole entry: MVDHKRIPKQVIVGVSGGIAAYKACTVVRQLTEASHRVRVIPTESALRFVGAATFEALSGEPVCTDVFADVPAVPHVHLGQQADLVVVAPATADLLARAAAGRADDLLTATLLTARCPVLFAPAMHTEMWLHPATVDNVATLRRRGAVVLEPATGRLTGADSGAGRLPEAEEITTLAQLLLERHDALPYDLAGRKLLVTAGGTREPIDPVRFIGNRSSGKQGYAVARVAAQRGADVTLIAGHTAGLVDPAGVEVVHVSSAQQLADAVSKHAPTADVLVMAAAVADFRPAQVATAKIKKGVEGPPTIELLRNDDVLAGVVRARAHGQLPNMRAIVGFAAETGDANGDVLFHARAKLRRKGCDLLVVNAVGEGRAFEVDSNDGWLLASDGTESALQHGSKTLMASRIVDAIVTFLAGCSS
UniProt P9WFT3, whole entry: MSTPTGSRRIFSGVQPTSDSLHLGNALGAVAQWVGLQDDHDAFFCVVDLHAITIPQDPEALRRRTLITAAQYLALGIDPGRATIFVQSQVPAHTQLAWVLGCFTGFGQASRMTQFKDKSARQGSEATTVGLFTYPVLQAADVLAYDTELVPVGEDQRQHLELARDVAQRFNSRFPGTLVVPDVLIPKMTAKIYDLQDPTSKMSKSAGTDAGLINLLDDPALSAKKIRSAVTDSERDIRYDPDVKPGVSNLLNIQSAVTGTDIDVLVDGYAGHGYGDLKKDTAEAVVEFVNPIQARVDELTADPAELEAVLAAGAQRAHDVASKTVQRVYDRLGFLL
UniProt A4I591, 1-473: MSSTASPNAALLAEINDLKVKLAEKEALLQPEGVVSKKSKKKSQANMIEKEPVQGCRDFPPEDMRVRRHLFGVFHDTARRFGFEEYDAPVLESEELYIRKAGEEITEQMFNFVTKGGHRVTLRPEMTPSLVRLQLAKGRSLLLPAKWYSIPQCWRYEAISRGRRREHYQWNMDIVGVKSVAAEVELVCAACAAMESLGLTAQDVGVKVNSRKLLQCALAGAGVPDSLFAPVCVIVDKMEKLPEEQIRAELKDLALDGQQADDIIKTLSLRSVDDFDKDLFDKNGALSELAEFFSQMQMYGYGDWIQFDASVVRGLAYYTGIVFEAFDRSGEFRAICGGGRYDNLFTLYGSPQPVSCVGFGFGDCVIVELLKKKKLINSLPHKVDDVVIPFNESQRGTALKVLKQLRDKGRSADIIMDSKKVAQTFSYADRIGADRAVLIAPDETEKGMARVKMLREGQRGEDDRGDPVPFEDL

Data taken from ChEMBL document CHEMBL3988442, “University of Dundee, Small-Polar-MMV Screening Library” (2021).

Results are given as percent effect. The controls that fix the scale are not given in the record; negative values are as filed. The compounds are a random part of those screened. Two or more numbers in one place are separate tests of the same structure; such repeats can differ widely. A dash means the value is not listed here; it may have been measured.

A: 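Coenzyme A biosynthesis protein CoaBC, Mycobacterium tuberculosis (UniProt P9WNZ1). Enzyme assay of CoaBC with a phosphate dye (Biomol Green) read at 650 nm. Compounds at 30 µM. Direction is inferred from only a few compounds that gave an IC50; most scored high, so higher reads as stronger inhibition. Most strong results did not repeat in a second test. Size under these conditions: about 67,000 compounds, about 40 of them at 50% or above in at least one test.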
B: 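Assay of Toxoplasma gondii numbers, read through their beta-galactosidase reporter with a colour substrate. Concentration: 10 µM. The record gives no direction; the compounds picked for IC50 retests had high values, so higher reads as fewer parasites. About 67,000 compounds were tested under these conditions; 0.38% (about 260) showed 50% or more at least once.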
C: 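Cell assay of Leishmania donovani living inside macrophages; the read-out is not stated. Compounds at 30 µM. Direction is inferred from retests: higher values go with stronger inhibition. Of about 69,000 compounds tested this way, about 1,000 (1.5%) reached 50% or more in at least one test.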
D: 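Enzyme assay of tryptophanyl-tRNA synthetase; the read-out is not stated. Target: Tryptophan-tRNA ligase, Mycobacterium tuberculosis (UniProt P9WFT3). Compounds at 10 µM. Higher most likely means stronger inhibition; the record gives no direction and few retests gave an IC50. Of about 65,000 compounds tested this way, about 64 (0.098%) reached 50% or more in at least one test.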
E: 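Enzyme assay of histidyl-tRNA synthetase; the read-out is not stated. Target: Histidine-tRNA ligase, Leishmania infantum (UniProt A4I591). Tested at 30 µM. The record gives no direction; compounds that gave an IC50 in retests scored well above the rest, so higher reads as stronger inhibition. The assay is labelled LdHisRS but filed under L. infantum. About 69,000 compounds were tested under these conditions; 0.6% (about 410) showed 50% or more at least once.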

compound	A	B	C	D	E
O=C(CCc1ccccc1)N1CCC(N2CCNC2=O)CC1	5.641	-4.548	-20.54	-3.206	2.667
Cc1ccsc1-c1cccc(-c2ccn(CC3CCNC3)n2)c1 (configuration not stated)	-38.74	-5.464	82.16	1.771	6.557
CCC(NCc1nccn1C)c1nc(C(F)(F)F)cs1 (configuration not stated)	5.556	-7.399	-11.77	-0.2141	5.128
CCCC(=O)N1CCCCC1c1nc(N(C)C)ncc1-c1cc(C)no1 (configuration not stated)	2.871	-8.015	13.69	-5.99	11.51
O=C(CSCCN1CCOCC1)N1CCCCCC1	-5.455	18.99	11.88	-0.000007	-2.041
Cc1ccc([C@]2(O)CC[C@H]3CN(Cc4ccccc4F)C[C@H]32)nc1	1.937	-	-	-	10.31
CCOc1ccc(CN2CCN(C(=O)c3ccc(C)n3C)CC2)cc1	-0.1304	3.852	42.85	-1.098	25.68
Cc1ccccc1-n1cc(-c2ccnc(N[C@@H](CO)C(C)C)n2)cn1	-2.683	7.139	27.95	-5.772	8.333
COCCN1CCc2nc(SCc3ccc(F)cc3)[nH]c(=O)c2C1	5.929	5.664	-3.718	-13.91	23.29
CNC(=O)COC1COC2(CCN(c3ccc(C#N)cc3)CC2)C1.O=C(O)C(F)(F)F (configuration not stated)	-	-12.19	4.367	-	-
CN(Cc1nnc2n1CCC2)C(=O)CCc1ccc2c(c1)OCO2	3.143	15.78	16.32	-5.508	6.14
CC(=O)N1CCN(Cc2ccncc2)CC2(CC(=O)N(C)C2)C1.O=C(O)C(F)(F)F.O=C(O)C(F)(F)F (configuration not stated)	-	10.04	8.088	-	-
CCCc1nc(C(=O)N2CCn3nc(C(=O)OC)cc3C2)cs1	3.236	29.03	16.3	2.574	5.882
CCc1cnc(N2C[C@H]3CN(Cc4csc(C)n4)C(=O)[C@H]3C2)nc1	8.333	-	-	-0.7757	21.37
[H][C@@]12CCN(C(C)=O)CC[C@]1(C(=O)Nc1cccnc1)CCN2C	-	-12.23	49.05	-	-
COC(=O)CNC(=O)c1cn(-c2ccccn2)c(=O)c2ccccc12	8.516	0.7692	6.713	-2.573	20.83
O=c1[nH]cnc2[nH]c(N3CCOCC3)nc12	8.277	17.86	9.807	1.876	21.84
Cc1ccc(OCC(O)COC2CCOCC2)c(Cl)c1 (configuration not stated)	-1.648	-2.979	-16.28	-3.763	8.861
N#Cc1cccc(NC(=O)N[C@H](CO)c2ccccc2)c1	-1.919	-3.578	10.62	-0.0774	21.15
COc1ccc(CN2CCC(C(N)=O)CC2)cc1SC(F)(F)F	8.547	1.299	13.67	-4.64	10.26
CCO[C@@H]1CCN(C(=O)N(C)C)[C@@H]1Cc1cnn(C)c1	3.09	-5.414	27.5	-1.744	21
CC(C)[C@H]1COC(=O)N1Cc1nncn1C(C)C	1.408	-1.455	17.96	-1.955	12.82
Cl.c1cnc(Nc2cncc(C3CCCN3)n2)cn1 (configuration not stated)	-	5.023	5.876	-	-
COc1ccccc1CCNC(=O)N1CCC(n2cncn2)CC1	-1.863	4.068	7.518	-6.01	3.509
CC(C)c1cc(C(=O)N2CCN(c3cccc(C(=O)O)c3)CC2)n(C)n1	0.4902	0.4764	-6.8	-5.926	0
O=C1Nc2ccccc2C12CCN(Cc1ccccn1)CC2	2.188	-	-	-4.942	17.31
O=C(Nc1ccnn1Cc1ccc(Cl)cc1)C1CCS(=O)(=O)C1 (configuration not stated)	-6.489	31.02	-12.14	-2.97	4.878
COC(=O)CCCC(=O)N(C)CC1Cc2ccccc2CN1C (configuration not stated)	2.236	3.721	11.82	-1.817	11.11
CCn1cc2c(n1)CN(Cc1sccc1C)CC2COCC1CC1 (configuration not stated)	-0.5076	-	-	-6.667	8.824
COCCCN1C(=O)CC[C@H]2CN(Cc3cc4ccccc4o3)CC[C@H]21	-0.1209	-	-	-3.122	6.452
Cn1cnc(S(=O)(=O)NCC2(O)CCOc3ccccc32)c1 (configuration not stated)	1.681	-12.82	11.27	-2.401	0.8547
COc1cc(C)nc(N2CCN(C(=O)c3ccc[nH]3)CC2)n1	1.779	-0.5169	13.99	-2.269	19.05
CN(C)S(=O)(=O)N1CCCC(c2nccnc2-c2cccc(Cl)c2)C1 (configuration not stated)	-12.35	10.05	-28.12	-6.201	8.392
Cc1nc(CN2CCCC(NCCOc3ccccc3C#N)C2)no1 (configuration not stated)	1.837	8.898	7.618	-1.261	5.085
CNC(=O)c1cnn2c(C3CCCN3)ccnc12 (configuration not stated)	-20.05	6.331	33.54	6.323	4.255
Cc1csc(CN2CC[C@H]3C[C@H](C)O[C@@H]3C2)n1	1.603	-	-	-1.201	19.35
CC(=O)N1CCCC1c1ccnc(Nc2cncnc2)n1 (configuration not stated)	3.841	4.393	3.386	-	4
CCCOC1CCCN(c2nc(COC)nc3c2cnn3C)C1 (configuration not stated)	-1.446	-28.83	47.88	4.207	12.09
O=C(CCC1CCN(C(=O)c2cnco2)CC1)NCc1cccc(Cl)c1	8.182	24.36	0.9264	-2.528	10.96
O=C(O)C(F)(F)F.O=C(O)C(F)(F)F.O=C(O)C(F)(F)F.c1coc(CN2CCOC3(COCCN(Cc4ccncc4)C3)C2)c1 (configuration not stated)	-	-6.222	52.19	-	-
[H][C@]12CC[C@]([H])(CN(c3ncccn3)C1)N(CCC(=O)NCc1ccco1)C2	-	-5.603	-202	-	-
CC1(C)C[C@H](CCNC(=O)c2ccncc2)c2ccccc2O1	0.1205	-6.229	-8.455 and 8.49	-	20
CCc1oc(C(=O)NCCSc2ncn[nH]2)cc1CN1CCCC1	3.89	-10.33	40.93	-0.306	15.66
[H][C@@]12C[C@H](C(=O)NCC3CC3)[C@@]([H])(CN(S(=O)(=O)Cc3ccccc3)C1)O2	-	3.161	-7.564	-	-
Cc1cnn(CC2CCCN2C(=O)c2ccc3[nH]c(=O)[nH]c3c2)c1 (configuration not stated)	-9.115	-1.636	-10.09	-0.5111	6.838
CCCN1CCC(CC(=O)N2CC(C)(C)[C@@](C)(O)C2)CC1	-1.653	-0.9485	9.113	-0.6189	4
Clc1snnc1CN1CCCC1Cn1cccn1 (configuration not stated)	0.5249	5.112	15.27	-4.47	6.78
Cc1cc(C(=O)NC(C)CC(=O)c2ccco2)[nH]n1 (configuration not stated)	7.421	-39.98	-16.87	4.354	14.16
[H][C@@]12CS(=O)(=O)C[C@]1([H])N(C(=O)c1ccc3ccccc3n1)CCN2CCC	-	-4.723	-4.133	-	-
O=C(Nc1cccnc1N1CCCC1)C1CCS(=O)(=O)C1 (configuration not stated)	-3.864	-21.18	-28.95	0.1298	10.71
Cc1cnn(CCC(=O)NS(=O)(=O)N2CCCc3ccccc32)c1	10.81	0.6952	12.82	1.556	16.67
Cn1nc(Br)c2c(=O)n(CCc3ccccc3)cnc21	1.827	-4.26	-13.87	-5.583	5.376
[H][C@]12CCC(=O)N(c3ccccc3)[C@@]1([H])CCN2C(=O)N1CCOCC1	-	0.7559	31.55	-	-
CCn1nc(C)c2ccn(CC(=O)NC(C)C)c(=O)c21	0.361	11.44	-9.804	-1.321	-2.247
CN1CC2(CCN(CCCOCc3ccccc3)CC2)OC1=O	6.472	-4.924	38.57	4.239	20

Repeated from the top, 6 entries:

compound,A,B,C,D,E
O=C(CCc1ccccc1)N1CCC(N2CCNC2=O)CC1,5.641,-4.548,-20.54,-3.206,2.667
Cc1ccsc1-c1cccc(-c2ccn(CC3CCNC3)n2)c1 (configuration not stated),-38.74,-5.464,82.16,1.771,6.557
CCC(NCc1nccn1C)c1nc(C(F)(F)F)cs1 (configuration not stated),5.556,-7.399,-11.77,-0.2141,5.128
CCCC(=O)N1CCCCC1c1nc(N(C)C)ncc1-c1cc(C)no1 (configuration not stated),2.871,-8.015,13.69,-5.99,11.51
O=C(CSCCN1CCOCC1)N1CCCCCC1,-5.455,18.99,11.88,-0.000007,-2.041
Cc1ccc([C@]2(O)CC[C@H]3CN(Cc4ccccc4F)C[C@H]32)nc1,1.937,-,-,-,10.31